Data: US20190338038A1 (CELLERANT THERAPEUTICS, published 2019)
No constants are given. Whether binding was seen depends on the method and setting. For some of these results: A result given as binding can be weak or reduced; the word gives no strength.

What was measured:
[1] = biological target: mIg3; test: FACS (GeoMean) on 293 cells transiently transfected with the chimeric receptor; antibody concentration not given
[2] = biological target: mIg2; test: FACS (GeoMean) on 293 cells transiently transfected with the chimeric receptor
[3] = biological target: mIg2; test: FACS (GeoMean) on 293 cells transiently transfected with the chimeric receptor; antibody concentration not given
[4] = biological target: mIg3; test: FACS (GeoMean) on 293 cells transiently transfected with the chimeric receptor

Row | binding [1] | binding [2] | binding [3] | binding [4] | Binder
1 | binds | no binding (tested: not given) | – | – | anti-IL1-RAP antibody clone 50.3G7 (antibody, V domains shown, Mouse monoclonal antibody) VH: QIQLVQSGPELKKPGETVKISCKASGYTFTNYGMHWVKQSPGEGLKWMGWINTYTGEPTYADDFKGRFGFSLETSASSAYLQINDLKNEDMATYFCARYYGNFDYWGQGTTLTVSS VL: DIVLTQSPATLSVTPGDSVSLSCRASQSISNNLHWYQQKSHESPRLLIKYASQSISGIPSRFSGSGSGTDFTLSINSVETEDFGVYFCQQSHNWPHTFGGGTKLEIKR
2 | – | – | binds | no binding (tested: not given) | anti-IL1-RAP antibody clone 56.12G6 (antibody, V domains shown, Mouse monoclonal antibody) VH: RSNYSSLGAELVKPGASVTLSCEASGYTFTSYWIHWVKQRPGQGLEWIGEINPSHGHTTYNEKFKNKATLTVDKSSSTAYMQVSSLTSEDSAVYYCTRHYGSYYFDLWGQGTTLTVSS VL: QIVLTQSPAIMSAFPGEKVTMTCRASSSVSYMHWYRQKSGTFPKRWIYDTSKLASGVPARFSGSGSGTSYSLTISSMEAEDAATYYCQQWSTNPITFGAGTKLELK
3 | – | – | binds | no binding (tested: not given) | 46.8G1 (antibody, V domains shown, also called anti-IL1-RAP antibody clone 46.8G1) VH: QVQLQQSGPELVKPGASVKISCTASGYAFSTSWMNWVKQRPGKGLEWIGRIYPGDGDSNYNGKFKGKATLTADKSSSTAYMQLSSLTSEDSAVYFCARRDYYGFFDVWGAGTTVTVSS VL: DIQMTQSPASLSVSVGETVTITCRASENIYSNLVWYQQKQGKSPQLLVYAATNLADGVPSRFSGSGSDTQYSLKINSLQSEDFGSYYCLHFWGPPYMYTFGGGTNLEMKR
4 | – | – | binds | no binding (tested: not given) | anti-IL1-RAP antibody clone 54.9D7 (antibody, V domains shown, Mouse monoclonal antibody from a hybridoma) VH: HVQLQQSGPELVRPGASVKLSCKASGYIFITYWMNWVKQRPGQGLEWVGQIFPASGTTYYNELFEGKATLTVDTSSNTAYMHLTSLTSEDSAVYYCARTDFYRYDGGYALDYWGQGTSLTVSS VL: DIVLTQSPISLAVFLGQRATISCRASQSVSTSGYSSMHWYQQKAGQPPKLLIKYASDLESGVPVRFSGSGSGTDFILNIHPVEVEDIATYYCHHSWGIPMYTFGGGTKLEIKR
5 | binds | no binding (tested: not given) | – | – | 42.3G6 (antibody, V domains shown, also called anti-IL1-RAP antibody clone 42.3G6) VH: QIQLVQSGPELKKPGETVKISCKASGYTFTDYSMHWVKQAPEKGLKWMGWINTETGEPTYADDFKGRFAFSLETSASTAYLQINNLKNEDTATYFCARGSFPWFTYWGQGTLVTVSA VL: DIVMTQAAFSNPVTLGTSASISCRSSKSLLHSNGITYLYWYLQKPGQSPQLLIYQMSNLASGVPDRFSSSGSGTDFTLRISRVEAEDVGVYYCAQNLELPFTFGSGTKLEIK
6 | – | – | binds | no binding (tested: not given) | anti-IL1-RAP antibody clone 54.8H8 (antibody, V domains shown, Mouse monoclonal antibody) VH: EVQLVESGGGLVKPGGSLKLSCAASGFSFSSYGMSWVRQSPEKRLEWVAEITSGGSHTYYPDTVTGRFTISRDNAKNTLYLEMSSLRSEDTAMYYCSRSYGNYVMDYWGQGTSVTVSS VL: QIVLTQSPAIMSASPGEKVTMTCSASSSVIYIYWFQQKPGSSPRLLIYDTSNLASGVPLRFSGSGSGTSYSLTISRMETEDVSTYYCQQWNSYPPTFGGGTKLEIK
7 | binds | no binding (tested: not given) | – | – | anti-IL1-RAP antibody clone 46.1D2 (antibody, V domains shown, Mouse monoclonal antibody) VH: QVQLQQSGPELVKPGASVKISCKASGYGFSSSWMNWVKQRPGKGLEWIGRIYPGDGNTNYYGEFKGKATLTADKSSSTAYMQLNSLTSEDSAVYFCARNDGYPAWFTYWGQGTLVTVSA VL: DIQMTQTTSSLSASLGDRVTISCSASQGISNYLNWYQQKPDGSVKLLIYYTSTLHSGVPSRFSGSGSGTDYSLTISNLEPEDIATYYCQQYSYLPWTFGGGTKLEIK
8 | – | – | binds | no binding (tested: not given) | anti-IL1-RAP antibody clone 54.9E9 (antibody, V domains shown, Mouse monoclonal antibody) VH: QIQLVQSGPELKKPGETVKISCKASSYTFTDYSMHWVKQAPGKGLKWMGWINTETGEPRYADDFKGRFAFSLETSASTAYLQINNLKNEDTATYFCARFLLHFDYWGQGTILTVSS VL: QIVLTQSPAIMSASPGEKVTMTCSASSSVSYMHWYQQKTGTSPKRLIYDTSKLASGVPARFSGSGSGTSYSLTISSMEAEDAATYYCHQRSYYPLTFGAGAKLELK
9 | – | – | binds | no binding (tested: not given) | anti-IL1-RAP antibody clone 50.6C12 (antibody, V domains shown, Mouse monoclonal antibody) VH: EVQLQQSGPELVKPGDSVKMSCKASGYTFTDYYMDWVKQSHGKSLEWIGYIYPHNGGTTYNQKFKGKATLTVDKSSSTAYMELHSLTSEDSAVYYCARSPFNYKDPMDWWGQGTSVTVSS VL: DIQMTQSPASLSASVGETVTITCRASGNIHNYLAWYQQKQGKSPHLLVYNAETLADGVPSRFSGSGSGTQYSLKINSLQPEDFGTYYCQHFWSTPWTFGGGTKLEIK
10 | – | – | binds | no binding (tested: not given) | anti-IL1-RAP antibody clone 54.15B5 (antibody, V domains shown, Mouse monoclonal antibody) VH: KWSWWSLGGGLAKPGGSLKLSCTASGFTFTSYVMSWVRQSPEKRLEWVAEISRGGSHTYYSDTVTGRFTISRDNANNALYLEMSSVRSADTAMYFCTRAYGNSEMDFWGQGTSVTVSS VL: QIVLTQSPAIMSASPGEKVTMTCSASSSISYIHWYRQKPGTSPKRWIYDTSNLASGVPARFSGSGSGTSYSLTIINMEAEDAATYYCHQRTYYPLTFGGGTRLELK
11 | binds | no binding (tested: not given) | – | – | anti-IL1-RAP antibody clone 42.1D3 (antibody, V domains shown, Mouse monoclonal antibody) VH: QIQLVQSGPELKKPGETVNISCKASGYTFTDFSMHWVKQAPGKGLQWMGWINTETGEPTYADDFEARFAFSLATSANTAYLKINNLKNEDTATYFCARFFLHFDYWGQGTTLTVSS VL: DIVLTQSPATLSVTPGDSVSLSCRASQSINNDLHWYQQKSHESPRLLIKYASQSISGIPSRFSGSGSGTDFTLRINSVETEDFRMYFCQQSNNWPLTFGAGTKLEVK
